Test results taken from the supplement of paper PMC10849652.
This is one part of the list. Residues, ends and D or L forms follow the SMILES beside them. *: point of attachment. Cbz = O=C(OCc1ccccc1)*

Sequences of proteins named here, by UniProt entry; tags and fusion partners are left off. A change or cut given only in a name is not applied to a line headed by its entry.
UniProt Q9Y519: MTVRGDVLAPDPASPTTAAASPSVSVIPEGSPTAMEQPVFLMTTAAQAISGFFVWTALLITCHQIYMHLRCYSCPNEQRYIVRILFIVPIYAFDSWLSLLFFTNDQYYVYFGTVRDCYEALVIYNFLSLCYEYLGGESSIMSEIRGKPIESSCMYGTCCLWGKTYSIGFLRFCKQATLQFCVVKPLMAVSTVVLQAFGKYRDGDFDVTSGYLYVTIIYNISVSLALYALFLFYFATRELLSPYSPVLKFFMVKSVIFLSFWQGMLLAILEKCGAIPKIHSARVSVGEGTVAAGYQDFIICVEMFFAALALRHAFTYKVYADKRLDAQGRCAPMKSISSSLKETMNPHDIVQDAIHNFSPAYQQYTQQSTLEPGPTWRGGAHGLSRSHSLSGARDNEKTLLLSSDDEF
UniProt Q9HCN3: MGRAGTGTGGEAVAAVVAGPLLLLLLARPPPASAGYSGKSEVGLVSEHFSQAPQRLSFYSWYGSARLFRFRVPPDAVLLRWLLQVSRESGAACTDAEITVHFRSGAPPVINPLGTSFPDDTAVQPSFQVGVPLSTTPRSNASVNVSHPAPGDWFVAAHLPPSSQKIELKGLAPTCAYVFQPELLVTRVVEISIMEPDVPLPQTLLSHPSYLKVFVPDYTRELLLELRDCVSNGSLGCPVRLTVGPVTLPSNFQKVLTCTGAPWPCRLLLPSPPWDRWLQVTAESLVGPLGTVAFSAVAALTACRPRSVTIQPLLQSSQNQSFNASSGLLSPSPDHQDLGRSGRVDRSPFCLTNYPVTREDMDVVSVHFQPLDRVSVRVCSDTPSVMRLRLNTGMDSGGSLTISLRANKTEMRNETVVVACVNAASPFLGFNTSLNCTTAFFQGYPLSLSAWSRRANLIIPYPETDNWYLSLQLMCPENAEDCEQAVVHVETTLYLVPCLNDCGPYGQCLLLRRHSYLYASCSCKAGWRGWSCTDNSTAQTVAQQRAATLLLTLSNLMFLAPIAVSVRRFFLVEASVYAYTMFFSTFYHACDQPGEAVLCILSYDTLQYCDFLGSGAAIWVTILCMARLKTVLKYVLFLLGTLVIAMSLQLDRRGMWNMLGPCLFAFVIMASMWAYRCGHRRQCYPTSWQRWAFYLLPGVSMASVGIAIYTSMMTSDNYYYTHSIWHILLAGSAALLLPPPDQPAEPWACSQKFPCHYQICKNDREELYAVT
UniProt Q08117: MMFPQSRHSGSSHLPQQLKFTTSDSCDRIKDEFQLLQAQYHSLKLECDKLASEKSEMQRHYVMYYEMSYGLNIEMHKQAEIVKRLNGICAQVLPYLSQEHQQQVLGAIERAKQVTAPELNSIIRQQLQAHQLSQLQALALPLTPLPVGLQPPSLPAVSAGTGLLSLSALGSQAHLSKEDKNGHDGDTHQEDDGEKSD
UniProt Q92545: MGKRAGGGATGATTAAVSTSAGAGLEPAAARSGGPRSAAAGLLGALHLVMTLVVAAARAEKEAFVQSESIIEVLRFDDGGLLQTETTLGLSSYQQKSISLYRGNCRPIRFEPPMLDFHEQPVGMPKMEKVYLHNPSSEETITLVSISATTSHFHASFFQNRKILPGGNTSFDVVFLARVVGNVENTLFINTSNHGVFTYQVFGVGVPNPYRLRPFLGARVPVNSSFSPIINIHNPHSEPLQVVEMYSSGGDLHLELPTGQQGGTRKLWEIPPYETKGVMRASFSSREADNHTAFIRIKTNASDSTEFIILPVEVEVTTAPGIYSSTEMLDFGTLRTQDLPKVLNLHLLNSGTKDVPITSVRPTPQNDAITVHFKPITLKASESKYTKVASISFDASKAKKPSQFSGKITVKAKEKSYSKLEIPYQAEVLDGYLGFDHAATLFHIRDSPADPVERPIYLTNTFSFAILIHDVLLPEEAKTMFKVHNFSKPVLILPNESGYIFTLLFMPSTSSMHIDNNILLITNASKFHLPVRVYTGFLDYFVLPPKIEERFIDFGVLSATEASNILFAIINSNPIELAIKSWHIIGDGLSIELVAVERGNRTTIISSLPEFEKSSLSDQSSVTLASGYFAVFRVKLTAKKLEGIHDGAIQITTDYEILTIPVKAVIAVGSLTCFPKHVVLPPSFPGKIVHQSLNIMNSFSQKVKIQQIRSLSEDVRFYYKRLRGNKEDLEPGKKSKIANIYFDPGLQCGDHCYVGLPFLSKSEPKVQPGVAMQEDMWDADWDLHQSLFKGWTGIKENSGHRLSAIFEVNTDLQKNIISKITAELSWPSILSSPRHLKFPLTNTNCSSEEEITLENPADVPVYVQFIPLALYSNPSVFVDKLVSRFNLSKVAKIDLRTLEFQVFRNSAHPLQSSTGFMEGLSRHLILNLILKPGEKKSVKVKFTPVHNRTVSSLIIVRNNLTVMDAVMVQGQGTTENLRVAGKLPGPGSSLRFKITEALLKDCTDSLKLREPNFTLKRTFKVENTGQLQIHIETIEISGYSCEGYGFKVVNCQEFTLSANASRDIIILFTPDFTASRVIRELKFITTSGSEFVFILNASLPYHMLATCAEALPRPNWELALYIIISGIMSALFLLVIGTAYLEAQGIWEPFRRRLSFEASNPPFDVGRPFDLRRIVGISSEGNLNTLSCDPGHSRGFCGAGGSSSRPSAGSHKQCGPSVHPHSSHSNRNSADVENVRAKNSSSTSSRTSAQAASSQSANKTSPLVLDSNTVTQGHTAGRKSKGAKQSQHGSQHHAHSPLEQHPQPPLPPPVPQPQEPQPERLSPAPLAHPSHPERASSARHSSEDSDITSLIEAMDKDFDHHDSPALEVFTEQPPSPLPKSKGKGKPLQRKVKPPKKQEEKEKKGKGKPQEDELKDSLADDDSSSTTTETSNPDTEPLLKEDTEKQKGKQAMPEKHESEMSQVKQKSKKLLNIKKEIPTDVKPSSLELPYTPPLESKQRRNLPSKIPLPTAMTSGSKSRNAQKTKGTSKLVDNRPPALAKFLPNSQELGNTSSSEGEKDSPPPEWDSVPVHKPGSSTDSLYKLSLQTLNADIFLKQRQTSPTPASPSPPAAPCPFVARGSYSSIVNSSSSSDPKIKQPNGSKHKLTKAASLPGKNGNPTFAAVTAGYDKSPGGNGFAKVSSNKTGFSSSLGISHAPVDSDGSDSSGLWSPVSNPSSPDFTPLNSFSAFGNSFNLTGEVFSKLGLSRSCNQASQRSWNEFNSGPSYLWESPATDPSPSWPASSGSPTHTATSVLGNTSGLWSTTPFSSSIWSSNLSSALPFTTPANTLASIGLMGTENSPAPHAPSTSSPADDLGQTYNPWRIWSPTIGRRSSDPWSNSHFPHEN
UniProt Q96B96: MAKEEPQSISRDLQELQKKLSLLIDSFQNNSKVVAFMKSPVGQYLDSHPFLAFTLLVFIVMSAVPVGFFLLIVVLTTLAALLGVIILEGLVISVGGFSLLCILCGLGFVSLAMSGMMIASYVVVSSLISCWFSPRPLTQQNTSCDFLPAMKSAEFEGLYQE
UniProt Q2T9K0: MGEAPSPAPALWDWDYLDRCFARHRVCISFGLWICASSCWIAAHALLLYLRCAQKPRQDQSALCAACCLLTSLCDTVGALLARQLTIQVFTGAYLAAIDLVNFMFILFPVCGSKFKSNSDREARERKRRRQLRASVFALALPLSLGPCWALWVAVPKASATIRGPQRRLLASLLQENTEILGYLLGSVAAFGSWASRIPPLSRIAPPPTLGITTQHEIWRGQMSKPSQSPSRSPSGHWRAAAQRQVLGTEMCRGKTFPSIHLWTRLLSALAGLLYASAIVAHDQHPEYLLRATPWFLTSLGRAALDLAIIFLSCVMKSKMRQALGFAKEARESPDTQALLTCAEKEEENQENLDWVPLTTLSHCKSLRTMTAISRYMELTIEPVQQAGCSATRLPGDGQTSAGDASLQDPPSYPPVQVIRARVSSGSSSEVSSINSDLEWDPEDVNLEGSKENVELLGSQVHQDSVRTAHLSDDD
UniProt Q9BX74: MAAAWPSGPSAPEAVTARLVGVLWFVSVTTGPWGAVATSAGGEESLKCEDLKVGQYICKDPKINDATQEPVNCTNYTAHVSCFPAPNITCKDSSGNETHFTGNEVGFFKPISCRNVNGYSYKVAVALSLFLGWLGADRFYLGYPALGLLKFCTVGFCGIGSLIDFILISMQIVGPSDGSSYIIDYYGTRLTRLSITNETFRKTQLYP
UniProt Q96DC7: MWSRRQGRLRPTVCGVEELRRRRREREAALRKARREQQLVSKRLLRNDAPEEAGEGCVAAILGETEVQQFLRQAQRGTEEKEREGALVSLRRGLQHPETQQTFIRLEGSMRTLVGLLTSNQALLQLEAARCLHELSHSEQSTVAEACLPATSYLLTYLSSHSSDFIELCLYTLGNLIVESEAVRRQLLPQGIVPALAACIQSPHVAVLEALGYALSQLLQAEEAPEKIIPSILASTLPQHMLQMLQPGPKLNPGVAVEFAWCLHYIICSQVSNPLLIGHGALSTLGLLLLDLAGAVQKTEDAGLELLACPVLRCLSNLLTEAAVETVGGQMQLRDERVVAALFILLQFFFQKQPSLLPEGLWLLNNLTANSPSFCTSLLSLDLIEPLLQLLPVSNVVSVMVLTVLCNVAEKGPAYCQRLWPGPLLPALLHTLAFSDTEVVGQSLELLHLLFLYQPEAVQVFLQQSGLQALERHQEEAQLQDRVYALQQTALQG
UniProt Q9BSA9: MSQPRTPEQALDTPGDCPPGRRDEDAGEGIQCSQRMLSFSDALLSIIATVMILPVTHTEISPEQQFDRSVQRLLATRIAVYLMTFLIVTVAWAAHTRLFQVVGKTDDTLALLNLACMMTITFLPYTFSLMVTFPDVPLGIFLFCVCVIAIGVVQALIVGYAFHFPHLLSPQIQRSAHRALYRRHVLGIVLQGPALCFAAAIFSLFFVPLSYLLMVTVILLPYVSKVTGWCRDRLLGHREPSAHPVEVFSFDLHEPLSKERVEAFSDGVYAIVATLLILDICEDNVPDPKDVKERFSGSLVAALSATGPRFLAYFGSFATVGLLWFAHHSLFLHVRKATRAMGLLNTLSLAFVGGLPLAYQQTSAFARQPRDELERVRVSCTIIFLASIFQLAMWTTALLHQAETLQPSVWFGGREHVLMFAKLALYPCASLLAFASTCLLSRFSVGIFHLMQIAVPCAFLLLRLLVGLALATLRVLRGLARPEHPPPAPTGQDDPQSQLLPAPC
UniProt Q86XT9, whole entry, looked up: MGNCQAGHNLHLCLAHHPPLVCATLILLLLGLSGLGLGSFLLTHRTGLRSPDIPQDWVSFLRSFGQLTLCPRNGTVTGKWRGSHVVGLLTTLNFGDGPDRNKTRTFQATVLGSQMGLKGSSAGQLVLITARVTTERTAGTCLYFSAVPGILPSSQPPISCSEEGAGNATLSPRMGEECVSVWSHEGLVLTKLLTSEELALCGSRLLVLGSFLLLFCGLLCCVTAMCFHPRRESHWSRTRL
UniProt Q5T292: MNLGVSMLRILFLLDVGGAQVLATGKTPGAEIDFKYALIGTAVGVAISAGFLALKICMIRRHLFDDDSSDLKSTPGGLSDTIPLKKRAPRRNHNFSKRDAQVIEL
UniProt O75069: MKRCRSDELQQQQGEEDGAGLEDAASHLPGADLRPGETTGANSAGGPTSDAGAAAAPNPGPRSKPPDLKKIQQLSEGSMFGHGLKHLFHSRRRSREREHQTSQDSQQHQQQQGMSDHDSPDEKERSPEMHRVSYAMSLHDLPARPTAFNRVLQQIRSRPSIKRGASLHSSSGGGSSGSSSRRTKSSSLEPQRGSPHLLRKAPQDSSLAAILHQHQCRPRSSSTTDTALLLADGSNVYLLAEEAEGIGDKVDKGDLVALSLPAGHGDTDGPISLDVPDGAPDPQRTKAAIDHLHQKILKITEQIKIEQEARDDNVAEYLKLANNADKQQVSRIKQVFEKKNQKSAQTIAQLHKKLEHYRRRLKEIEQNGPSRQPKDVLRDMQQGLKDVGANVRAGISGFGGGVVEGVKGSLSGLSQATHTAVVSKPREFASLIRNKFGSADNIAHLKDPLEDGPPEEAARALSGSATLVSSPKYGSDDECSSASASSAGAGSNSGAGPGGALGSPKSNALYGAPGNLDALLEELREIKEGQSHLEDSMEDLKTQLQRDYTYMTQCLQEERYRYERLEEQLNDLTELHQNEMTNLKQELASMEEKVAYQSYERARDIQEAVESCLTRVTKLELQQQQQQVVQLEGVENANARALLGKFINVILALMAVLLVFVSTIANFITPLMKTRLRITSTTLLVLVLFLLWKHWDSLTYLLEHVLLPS
UniProt Q8N131: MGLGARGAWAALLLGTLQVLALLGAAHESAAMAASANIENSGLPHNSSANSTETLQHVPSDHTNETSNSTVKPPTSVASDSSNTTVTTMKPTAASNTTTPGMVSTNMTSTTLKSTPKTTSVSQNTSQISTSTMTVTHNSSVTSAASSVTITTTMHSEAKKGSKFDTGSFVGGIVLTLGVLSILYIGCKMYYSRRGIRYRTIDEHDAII
UniProt Q9Y2Y6: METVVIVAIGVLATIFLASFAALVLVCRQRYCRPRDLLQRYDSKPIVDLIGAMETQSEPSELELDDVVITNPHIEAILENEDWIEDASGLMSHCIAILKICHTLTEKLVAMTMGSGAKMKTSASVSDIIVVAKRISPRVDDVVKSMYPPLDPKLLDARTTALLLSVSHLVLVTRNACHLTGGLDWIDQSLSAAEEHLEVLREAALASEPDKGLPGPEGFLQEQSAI

Key:
Experiment in all cases: log2 fold change, soluble protein after heating vs DMSO (PISA); higher = thermal stabilisation; K562 cells, 10 uM, 30 min; active = over 0.2 and 3.5 SD of the protein, either way, in both replicates (recomputed)
[1] = compound: C=CC(=O)N1CCC[C@@H](n2nc(-c3ccc(Oc4ccccc4)cc3)c3c(N)ncnc32)C1 [ibrutinib]
In short: (§1)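 Soluble protein was defined as the supernatant after 21,000xg for 90 min. It came from K562 cells at 2×10^6 cells/mL given 10 μM compound for 30 min, heated in aliquots for 3 min across 48°C-58°C, pooled, and extracted in PBS with 0.5% NP-40 at 4°C, and was quantified by TMTpro 16plex LC-MS/MS with equalised channel sums. Thermal stability against control samples, from duplicates, is reported as log2 fold change.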

[2] = compound: CC(C)C1=C2N=C(C=C(N2N=C1)NCC3=CC=CC=C3)NCCCCCCN
In short: as §1

[3] = compound: CC1=C(C(CC(=O)N1)C2=CC=C(C=C2)C(F)(F)F)C(=O)NC3=C(C=C4C(=C3)C=NN4)F
In short: as §1

[4] = compound: CC1=C(C2=C(C=C1)C(=O)C3=CC=CC=C3N2CCCN)C
In short: as §1

[5] = compound: CC1=C(C=C(C=C1)NC(=O)C2=CC(=CC=C2)C(C)(C)C#N)NC3=CC4=C(C=C3)N=CN(C4=O)C
In short: as §1

[6] = compound: CC1=CC=C(C=C1)SC2=C3C=C(SC3=CN=C2)C(=O)N
In short: as §1

[7] = compound: CCCS(=O)(=O)Nc1ccc(F)c(C(=O)c2c[nH]c3ncc(Cl)cc23)c1F
In short: as §1

[8] = compound: CCCc1cc(C)[nH]c(=O)c1CNC(=O)c1cc(-c2ccnc(N3CCN(C)CC3)c2)cc2c1cnn2C(C)C
In short: as §1

[9] = compound: CCN(CC)Cc1ccc2cc(COC(=O)Nc3ccc(C(=O)NO)cc3)ccc2c1 [givinostat]
In short: as §1

[10] = compound: CCN(CCCOc1ccc2c(Nc3cc(CC(=O)Nc4cccc(F)c4)[nH]n3)ncnc2c1)CCOP(=O)(O)O [barasertib]
In short: as §1

[11] = compound: CC(C)(C)Cn1c(N)nc2ccc(-c3[nH]c(C(C)(C)C)nc3-c3ccc(F)cc3)nc21 [ralimetinib]
In short: as §1

[12] = compound: CC(C)C[C@@H](C=O)NC(=O)[C@H](CC(C)C)NC(=O)[C@H](CC(C)C)NC(=O)OCc1ccccc1
In short: as §1

[13] = compound: CC1=C(C=C(C=C1)NC(=O)C2=CC(=CC=C2)N(C)C)NC(=O)C3=CC=C(C=C3)O
In short: as §1

[14] = compound: CCCS(=O)(=O)Nc1ccc(F)c(C(=O)c2c[nH]c3ncc(-c4ccc(Cl)cc4)cc23)c1F [vemurafenib]
In short: as §1

[15] = compound: CC(=O)c1cnc2ccc(-c3cc(Cl)c(O)c(Cl)c3)nc2c1N[C@H]1CC[C@H](CN(C)C)CC1
In short: as §1

[16] = compound: CC(C)(O)CC(=O)NCCn1ccc2ncnc(Nc3ccc(Oc4cccc(C(F)(F)F)c4)c(Cl)c3)c21
In short: as §1

[17] = compound: CCCCN(Cc1ccc(C(=O)NO)cc1)C(=O)Nc1ccccc1 [Nexturastat A]
In short: as §1

[18] = compound: C1COCCN1CCN2C3=CC=CC=C3N=C2NC(=O)C4=CC(=CC=C4)[N+](=O)[O-] [IRAK-1-4 Inhibitor I]
In short: as §1

[19] = compound: CC(C)N(C[C@H]1O[C@@H](n2cnc3c(N)ncnc32)[C@H](O)[C@@H]1O)[C@H]1C[C@@H](CCc2nc3cc(C(C)(C)C)ccc3[nH]2)C1 [pinometostat]
In short: as §1

[20] = compound: CC1=NC(=CC=C1)C2=C(N=C(N2)C(C)(C)C)C3=CC4=NC=CN=C4C=C3
In short: as §1

Measured: log2 fold change

TMEM184B (UniProt Q9Y519)
inactive: [1] 0.056 | [2] -0.226 | [3] 0.063 | [4] 0.065 | [5] -0.076 | [6] -0.041 | [7] 0.057 | [8] 0.05 | [9] -0.048 | [10] -0.063

TMEM8A (UniProt Q9HCN3)
active: [2] -0.445
inactive: [1] 0.06 | [11] -0.131 | [12] -0.036 | [4] 0.044 | [5] 0.101 | [13] 0.017 | [6] -0.047 | [14] -0.003 | [7] -0.073 | [8] -0.077 | [9] 0.014 | [10] -0.189

TMEM268 isoform 3 (UniProt Q5VZI3)
inactive: [1] 0.036 | [15] -0.042 | [11] -0.056 | [16] -0.334 | [2] -0.095 | [12] -0.016 | [4] 0.014 | [5] 0.056 | [13] 0.024 | [6] -0.178 | [17] 0.124 | [7] 0.083 | [8] 0.18 | [9] 0.11 | [10] -0.461

TLE5 isoform 2 (UniProt Q08117)
inactive: [15] -0.052 | [11] -0.083 | [12] -0.062 | [3] -0.036 | [13] 0.093 | [6] 0.06 | [14] 0.018 | [7] 0.065 | [8] 0.355

TMCO3 (UniProt Q6UWJ1)
inactive: [11] 0.045 | [16] 0.02 | [12] -0.091 | [5] 0.014 | [13] 0.026 | [17] 0.054 | [14] 0.16 | [8] 0.254

TMEM131 (UniProt Q92545)
inactive: [15] 0 | [2] 0.03 | [4] 0.102 | [5] -0.046 | [9] -0.018

TMEM159 isoform 2 (UniProt Q96B96)
inactive: [1] -0.143 | [16] -0.034 | [2] 0.126 | [3] 0.047 | [4] 0.103 | [5] -0.095 | [17] 0.057 | [8] 0.149 | [9] -0.024 | [10] 0.196

TMEM127 (UniProt O75204)
inactive: [15] -0.101 | [2] -0.184 | [3] -0.088 | [4] -0.003 | [9] 0.028

TMEM44 (UniProt Q2T9K0)
inactive: [18] 0.152 | [2] -0.014 | [19] 0.01 | [3] 0.06 | [20] 0.056 | [9] 0.089

TM2D1 (UniProt Q9BX74)
inactive: [5] -0.026

TMCC3 (UniProt Q9ULS5)
inactive: [1] -0.188 | [11] -0.064 | [12] -0.13 | [3] -0.089 | [5] 0.026 | [13] -0.03 | [8] 0.061 | [10] 0.079

TMCO6 isoform 2 (UniProt Q96DC7)
inactive: [2] -0.008 | [9] 0.095

TMEM175 (UniProt Q9BSA9)
inactive: [15] -0.154 | [2] -0.051 | [4] 0.263 | [6] -0.101 | [7] -0.07 | [9] 0.081

Taken from the listing (three entries):
TM2D1 (UniProt Q9BX74)
inactive: [5] -0.026

TMCC3 (UniProt Q9ULS5)
inactive: [1] -0.188 | [11] -0.064 | [12] -0.13 | [3] -0.089 | [5] 0.026 | [13] -0.03 | [8] 0.061 | [10] 0.079

TMCO6 isoform 2 (UniProt Q96DC7)
inactive: [2] -0.008 | [9] 0.095

(list continues)

TMEM219 (UniProt Q86XT9)
inactive: [1] 0.115 | [15] 0.083 | [16] -0.015 | [2] 0.007 | [4] -0.134 | [5] 0.021 | [6] 0.02 | [17] 0.311 | [14] 0.172 | [7] -0.107 | [9] -0.029 | [10] -0.187

TMEM273 isoform 2 (UniProt Q5T292)
inactive: [15] -0.101 | [3] 0.053 | [4] -0.042 | [14] -0.026

TMCC2 (UniProt O75069)
inactive: [15] -0.064 | [3] 0.159

TMEM123 (UniProt Q8N131)
inactive: [1] 0.041 | [15] -0.05 | [16] 0.005 | [2] 0.221 | [3] 0 | [4] -0.07 | [5] -0.009 | [6] -0.02 | [17] -0.18 | [14] 0.031 | [7] -0.049 | [8] 0.077 | [9] -0.069 | [10] -0.029

TMEM98 (UniProt Q9Y2Y6)
inactive: [1] -0.11 | [11] 0.069 | [12] 0.065 | [3] -0.155 | [13] -0.324 | [6] -0.162 | [7] -0.001 | [8] 0.15 | [10] -0.155
